Taken from: PubChem BioAssay AID493246 (Drosophila RNAi Screening Center, 2011)
The screen tested about 21,000 reagents; below is an unselected part of those that have a named target and a result. In the full data, 429 (2%) got an active call. 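Values are raw and not normalised between plates; calls rest on per-plate z-scores that were not deposited.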 Entries without a mark were called inactive. Reagents against one gene are numbered here. Names joined by + are all predicted targets of the reagent. Not stated in the record: the amount of reagent, the time to read-out.

- Test: 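Genome-wide search for dsRNAs that reduce cell number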 (primary screen)
- Cells: Drosophila Kc and S2R+ cells
- Knock-down reagent: long dsRNA against Drosophila genes
- Measured: 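Cell number per well after knock-down, printed as raw plate values; calls were based on per-plate z-scores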
- Direction: Kc cell number and S2R+ cell number: higher = more cells remaining
- Call rule: 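Active when the per-plate z-score of cell number is 3 or more in the direction of fewer cells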

With CG9294, what does the deposit list?
Kc cell number, rep 1: 1.47e6; Kc cell number, rep 2: 1.55e6; S2R+ cell number, rep 1: 1.31e6; S2R+ cell number, rep 2: 3.44e5

Which result is listed for CG34129?
Kc cell number, rep 1: 1.76e6; Kc cell number, rep 2: 1.81e6; S2R+ cell number, rep 1: 1.06e6; S2R+ cell number, rep 2: 1.16e6

For CG31007, how do the results read?
Kc cell number, rep 1: 1.10e6; Kc cell number, rep 2: 1.38e6; S2R+ cell number, rep 1: 1.02e6; S2R+ cell number, rep 2: 1.05e6

How did the screen score Snap24?
Kc cell number, rep 1: 1.68e6; Kc cell number, rep 2: 1.83e6; S2R+ cell number, rep 1: 1.38e6; S2R+ cell number, rep 2: 1.49e6

What did the screen give for FeCH?
Kc cell number, rep 1: 4.73e5; S2R+ cell number, rep 1: 7.99e5

For CG13949, how do the results read?
Kc cell number, rep 1: 1.48e6; Kc cell number, rep 2: 1.50e6; S2R+ cell number, rep 1: 1.01e6; S2R+ cell number, rep 2: 1.17e6

For CG3287 (retired record), how do the results read?
Kc cell number, rep 1: 1.58e6; Kc cell number, rep 2: 1.67e6; S2R+ cell number, rep 1: 1.25e6; S2R+ cell number, rep 2: 1.36e6

For Mnn1, what does the deposit list?
Kc cell number, rep 1: 1.60e6; Kc cell number, rep 2: 1.51e6; S2R+ cell number, rep 1: 1.22e6; S2R+ cell number, rep 2: 1.42e6

With Trhn, how do the results read?
Kc cell number, rep 1: 1.36e6; Kc cell number, rep 2: 1.38e6; S2R+ cell number, rep 1: 1.17e6; S2R+ cell number, rep 2: 1.08e6

With Prx6a, how do the results read?
Kc cell number, rep 1: 1.37e6; Kc cell number, rep 2: 1.36e6; S2R+ cell number, rep 1: 7.71e5; S2R+ cell number, rep 2: 8.98e5

With CG32379, what was measured?
Kc cell number, rep 1: 1.44e6; Kc cell number, rep 2: 1.36e6; S2R+ cell number, rep 1: 1.08e6; S2R+ cell number, rep 2: 1.16e6

What did the screen give for CG34323?
Kc cell number, rep 1: 1.21e6; Kc cell number, rep 2: 1.40e6; S2R+ cell number, rep 1: 1.08e6; S2R+ cell number, rep 2: 1.10e6

For mthl12, what does the deposit list?
Kc cell number, rep 1: 1.68e6; Kc cell number, rep 2: 1.65e6; S2R+ cell number, rep 1: 1.15e6; S2R+ cell number, rep 2: 1.24e6

With CG7215 + Prx5 #1, what does the deposit list?
Kc cell number, rep 1: 1.61e6; Kc cell number, rep 2: 1.54e6; S2R+ cell number, rep 1: 1.10e6; S2R+ cell number, rep 2: 1.19e6

Which result is listed for CG7215 + Prx5 #2?
Kc cell number, rep 1: 1.78e6; Kc cell number, rep 2: 1.70e6; S2R+ cell number, rep 1: 1.37e6; S2R+ cell number, rep 2: 1.36e6

What did the screen give for larp #1?
Kc cell number, rep 1: 1.40e6; Kc cell number, rep 2: 1.41e6; S2R+ cell number, rep 1: 9.35e5; S2R+ cell number, rep 2: 1.00e6

With larp #2, what was measured?
Kc cell number, rep 1: 1.38e6; Kc cell number, rep 2: 1.42e6; S2R+ cell number, rep 1: 9.23e5; S2R+ cell number, rep 2: 1.08e6

For Targ1, how do the results read?
Kc cell number, rep 1: 1.32e6; Kc cell number, rep 2: 1.23e6; S2R+ cell number, rep 1: 1.32e6; S2R+ cell number, rep 2: 1.43e6

With CG17048, what does the deposit list?
Kc cell number, rep 1: 1.68e6; Kc cell number, rep 2: 1.76e6; S2R+ cell number, rep 1: 1.17e6; S2R+ cell number, rep 2: 1.36e6

What is on record for Prosbeta5R2?
Kc cell number, rep 1: 1.46e6; Kc cell number, rep 2: 1.54e6; S2R+ cell number, rep 1: 9.21e5; S2R+ cell number, rep 2: 1.22e6

What is on record for CG11786?
Kc cell number, rep 1: 1.44e6; Kc cell number, rep 2: 1.45e6; S2R+ cell number, rep 1: 9.71e5; S2R+ cell number, rep 2: 1.04e6

For cd, what was measured?
Kc cell number, rep 1: 1.44e6; Kc cell number, rep 2: 1.55e6; S2R+ cell number, rep 1: 9.62e5; S2R+ cell number, rep 2: 1.11e6

For maf-S, how do the results read?
Kc cell number, rep 1: 1.35e6; Kc cell number, rep 2: 1.22e6; S2R+ cell number, rep 1: 1.00e6; S2R+ cell number, rep 2: 1.38e6

With CG7653, what does the deposit list?
Kc cell number, rep 1: 1.62e6; Kc cell number, rep 2: 1.82e6; S2R+ cell number, rep 1: 1.20e6; S2R+ cell number, rep 2: 1.42e6

With CG14421, how do the results read?
Kc cell number, rep 1: 1.75e6; Kc cell number, rep 2: 1.80e6; S2R+ cell number, rep 1: 1.11e6; S2R+ cell number, rep 2: 1.26e6

What did the screen give for CG33642?
Kc cell number, rep 1: 1.60e6; Kc cell number, rep 2: 1.62e6; S2R+ cell number, rep 1: 1.10e6; S2R+ cell number, rep 2: 1.23e6

For CG13946, how do the results read?
Kc cell number, rep 1: 1.73e6; Kc cell number, rep 2: 1.74e6; S2R+ cell number, rep 1: 1.09e6; S2R+ cell number, rep 2: 1.23e6

2 consecutive entries already listed, quoted:
Snap24: Kc cell number, rep 1 = 1.68e6; Kc cell number, rep 2 = 1.83e6; S2R+ cell number, rep 1 = 1.38e6; S2R+ cell number, rep 2 = 1.49e6
FeCH: Kc cell number, rep 1 = 4.73e5; S2R+ cell number, rep 1 = 7.99e5
